Measurements: article PMC7994445
These are yes or no findings as the source states them, for the method shown. Some results given as binding are weak or reduced against the parent protein; the word gives no strength.

Amino acid sequences for entries named in this document (tags omitted). A change or cut given only in a name is not applied to a line headed by its entry.
UniProt Q8I4X0: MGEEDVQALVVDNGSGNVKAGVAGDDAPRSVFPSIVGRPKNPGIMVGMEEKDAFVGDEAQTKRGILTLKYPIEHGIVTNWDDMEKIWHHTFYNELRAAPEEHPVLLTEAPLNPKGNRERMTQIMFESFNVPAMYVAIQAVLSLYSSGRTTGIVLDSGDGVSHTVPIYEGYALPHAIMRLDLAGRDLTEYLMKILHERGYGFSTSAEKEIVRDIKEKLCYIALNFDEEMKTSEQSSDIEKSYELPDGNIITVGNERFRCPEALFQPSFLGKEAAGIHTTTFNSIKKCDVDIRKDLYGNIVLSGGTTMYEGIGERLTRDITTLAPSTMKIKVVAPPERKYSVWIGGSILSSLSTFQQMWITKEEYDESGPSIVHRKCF
UniProt Q8IDR3: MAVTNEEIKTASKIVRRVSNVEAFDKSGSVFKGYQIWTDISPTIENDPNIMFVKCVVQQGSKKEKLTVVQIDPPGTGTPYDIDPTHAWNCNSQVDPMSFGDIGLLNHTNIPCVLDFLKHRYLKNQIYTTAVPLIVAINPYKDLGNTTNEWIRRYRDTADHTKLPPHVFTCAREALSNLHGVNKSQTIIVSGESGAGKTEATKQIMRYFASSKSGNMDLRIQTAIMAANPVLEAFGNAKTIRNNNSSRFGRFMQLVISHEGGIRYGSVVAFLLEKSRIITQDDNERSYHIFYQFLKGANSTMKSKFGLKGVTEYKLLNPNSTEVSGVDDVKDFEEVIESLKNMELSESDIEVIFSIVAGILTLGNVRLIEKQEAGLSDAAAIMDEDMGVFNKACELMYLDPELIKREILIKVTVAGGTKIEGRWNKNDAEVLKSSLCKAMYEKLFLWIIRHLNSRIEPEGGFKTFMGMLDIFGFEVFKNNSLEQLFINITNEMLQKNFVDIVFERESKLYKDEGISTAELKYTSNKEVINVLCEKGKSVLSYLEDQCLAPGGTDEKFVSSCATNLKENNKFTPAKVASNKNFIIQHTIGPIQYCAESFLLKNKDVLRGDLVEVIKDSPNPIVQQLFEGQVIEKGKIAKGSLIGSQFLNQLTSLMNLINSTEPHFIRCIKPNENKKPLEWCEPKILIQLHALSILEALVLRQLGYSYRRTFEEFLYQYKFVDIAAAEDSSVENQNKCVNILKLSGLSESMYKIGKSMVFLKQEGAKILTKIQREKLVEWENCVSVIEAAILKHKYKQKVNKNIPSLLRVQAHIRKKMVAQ

Target: PfActin-1 filaments (Plasmodium falciparum) (UniProt Q8I4X0)
Assay: cryo-EM micrographs of filament decoration; screen of PfMyoA constructs incubated in solution with skeletal F-actin or PfAct1 filaments, vitrified within 15 min; occupancy judged from micrographs and 2D classes; both purified

Substance	binding
PfMyoA full-length protein (from UniProt Q8IDR3 1-818)	binds
PfMyoA motor domain (from UniProt Q8IDR3 1-768) (domain or fragment)	binds
